Results from PubChem BioAssay AID328 (DTP/NCI, 2004).
The list shows only some results of the screen, not a fair sample: it is rich in T/C values a quarter to a half above the control, in often repeated tests (any T/C) and in doses without a T/C. Further doses and runs are listed elsewhere. T/C is the treated group as % of the vehicle group. Some doses have a count of surviving animals in place of a T/C: the source files T/C as zero there, which appears to mark a toxic dose or a test without result, not a measured value. Some doses without a T/C left all or most animals alive at the check, yet need not have been tolerated: survival well below the control is almost never listed, so the zero probably covers shortened survival too. Counts of survivors are from the toxicity check (mostly the fifth day) where no day follows; animals may have died later. Schedules are NCI's codes, taken here to give the interval after Q, in days (D) or hours (H), and the number of doses after X. For survival time, the PubChem record calls one and a half times the control and up active, and a quarter to a half above the control has no call in these data; cut-offs in other NCI protocols can differ. Some entries hold several experiments; the results are listed from low to high. Some T/C values carry the count of animals alive at the toxicity check (mostly the fifth day); without a count, all were alive then.

Test system: BDF1 mice, P388 leukemia ip, median survival T/C
Assay: NCI In Vivo Anticancer Drug Screen. Data for tumor model P388 Leukemia (intraperitoneal) in B6D2F1 (BDF1) mice
Settings: T/C endpoint: median survival time, higher T/C = longer survival
Method in brief: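 Survival ratio, drug arm over vehicle arm, in mice with a transplanted tumour.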

[1] = dose: 100.0 mg/kg/injection, schedule: Q01DX009 (ip), vehicle: saline with Tween-80
[2] = dose: 200.0 mg/kg/injection, schedule: Q01DX009 (ip), vehicle: saline with Tween-80
[3] = dose: 200.0 mg/kg/injection, schedule: Q01DX009 (ip), vehicle: water
[4] = dose: 50.0 mg/kg/injection, schedule: Q01DX001 (ip), vehicle: saline with Tween-80

`O=C1OC(=O)C2C3CCC(O3)C12` (stereo not drawn) was tested, and the survivor count (dose: 3.12 mg/kg/injection, schedule: Q01DX009 (ip), vehicle: saline) was 0 of 6, the survivor count (dose: 10.5 mg/kg/injection, schedule: Q01DX001 (ip), vehicle: Klucel (hydroxypropylcellulose) (HPC)) was 0 of 6 and the survivor count (dose: 10.5 mg/kg/injection, schedule: Q01DX001 (ip), vehicle: saline) was 1 of 6. For the same compound, the survivor count (dose: 11.0 mg/kg/injection, schedule: Q04DX003 (ip), vehicle: saline) was 3 of 6, the survivor count (dose: 16.0 mg/kg/injection, schedule: Q04DX003 (ip), vehicle: saline) was 1 of 6 and the survivor count (dose: 21.0 mg/kg/injection, schedule: Q01DX001 (ip), vehicle: saline) was 0 of 6.

In the case of `CCCCCCCCCCCC(=O)Oc1c(Cl)c(Cl)c(C#N)c(Cl)c1Cl`, the survivor count [1] is reported as 6 of 6.

In the case of `S=C1NC2=C(CCC/C2=C\c2ccccc2)C(c2ccccc2)N1` (stereo not drawn), the survivor count [2] is reported as 6 of 6.

For `CN(C(N)=O)c1c(O)nc(N)[nH]c1=O`, the survivor count (dose: 25.0 mg/kg/injection, schedule: Q01DX009 (ip), vehicle: water) was 6 of 6 and the survivor count [3] was 1 of 6.

`O=[N+]([O-])c1cccnc1Cl` was tested, and the survivor count (dose: 400.0 mg/kg/injection, schedule: Q04DX003 (ip), vehicle: Klucel (hydroxypropylcellulose) (HPC)) was 0 of 6.

With `O=C(O)CC(=O)N=c1snc(Nc2ccccc2)n1-c1ccccc1` the survivor count (dose: 50.0 mg/kg/injection, schedule: Q01DX009 (ip), vehicle: Klucel (hydroxypropylcellulose) (HPC)) was 6 of 6, the survivor count (dose: 100.0 mg/kg/injection, schedule: Q01DX009 (ip), vehicle: Klucel (hydroxypropylcellulose) (HPC)) was 6 of 6 and the survivor count (dose: 200.0 mg/kg/injection, schedule: Q01DX009 (ip), vehicle: Klucel (hydroxypropylcellulose) (HPC)) was 6 of 6.

`Clc1ccc(-c2cc(=[N+]3CCOCC3)ss2)cc1` was tested, and the survivor count [3] was 4 of 6, the survivor count (dose: 400.0 mg/kg/injection, schedule: Q01DX009 (ip), vehicle: water) was 0 of 6 and the survivor count (dose: 400.0 mg/kg/injection, schedule: Q04DX003 (ip), vehicle: water) was 4 of 6.

With `Cn1c(=O)n(C)c2ccccc21` the T/C [4] was 127 % of control.

In the case of `CCS(=O)(=O)CCN1C(=O)CN=C(c2ccccc2F)c2cc(Cl)ccc21`, the survivor count [2] is reported as 0 of 6.

In the case of `CN(C)C=O.CN(C)C=O.[Cl][Sn]([Cl])([Cl])[Cl]`, the survivor count (dose: 150.0 mg/kg/injection, schedule: Q01DX009 (ip), vehicle: Klucel (hydroxypropylcellulose) (HPC)) is reported as 5 of 6, the survivor count (dose: 225.0 mg/kg/injection, schedule: Q01DX009 (ip), vehicle: Klucel (hydroxypropylcellulose) (HPC)) is reported as 2 of 6 and the survivor count (dose: 300.0 mg/kg/injection, schedule: Q04DX003 (ip), vehicle: Klucel (hydroxypropylcellulose) (HPC)) is reported as 2 of 6. The survivor count (dose: 335.0 mg/kg/injection, schedule: Q01DX009 (ip), vehicle: Klucel (hydroxypropylcellulose) (HPC)) was 0 of 6.

`COc1ccc(CC2C(=O)NC(C)C(=O)N(C)C3C(=O)N(C)C(Cc4ccc(O)c(c4)Oc4ccc(cc4)C3O)C(=O)NC(C)C(=O)NC(C)C(=O)N2C)cc1` (stereo not drawn) was tested, and the T/C (dose: 0.04 mg/kg/injection, schedule: Q01DX009 (ip), vehicle: saline) was 134 % of control, the T/C (dose: 0.07 mg/kg/injection, schedule: Q01DX009 (ip), vehicle: saline) was 139 % of control and the T/C (dose: 0.25 mg/kg/injection, schedule: Q01DX009 (ip), vehicle: distilled water + Tween-80) was 142 % of control. The T/C (dose: 0.5 mg/kg/injection, schedule: Q01DX009 (ip), vehicle: distilled water + Tween-80) was 149 % of control, the T/C (dose: 2.0 mg/kg/injection, schedule: Q01DX009 (ip), vehicle: distilled water + Tween-80) was 149 % of control and the survivor count (dose: 4.0 mg/kg/injection, schedule: Q01DX009 (ip), vehicle: distilled water + Tween-80) was 5 of 6. The survivor count (dose: 4.32 mg/kg/injection, schedule: Q04DX003 (ip), vehicle: other) was 4 of 8, the survivor count (dose: 7.2 mg/kg/injection, schedule: Q04DX003 (ip), vehicle: other) was 1 of 8 and the survivor count (dose: 12.0 mg/kg/injection, schedule: Q04DX003 (ip), vehicle: other) was 0 of 8. The survivor count (dose: 20.0 mg/kg/injection, schedule: Q04DX003 (ip), vehicle: other) was 0 of 8, the T/C (dose: 20.0 micrograms/kg/injection, schedule: Q01DX009 (ip), vehicle: alcohol) was 144 % of control and the T/C (dose: 40.0 micrograms/kg/injection, schedule: Q01DX009 (ip), vehicle: alcohol) was 126 % of control. For the same compound, the T/C (dose: 4000.0 micrograms/kg/injection, schedule: Q04DX003 (ip), vehicle: other) was 136 % of control [6 of 8 alive].

With `CN1c2ccccc2C(=O)N2CCc3c([nH]c4ccccc34)C21` (stereo not drawn) the T/C (dose: 40.0 mg/kg/injection, schedule: Q01DX009 (ip), vehicle: saline with Tween-80) was 126 % of control.

In the case of `CC1OC(O[C@@H]2C=C3CC[C@@H]4[C@H](CC[C@]5(C)[C@@H](c6ccc(=O)oc6)CC[C@]45O)[C@@]3(C)CC2)C(O)C(O)C1O` (stereo partly drawn), the survivor count (dose: 10.0 mg/kg/injection, schedule: Q01DX010 (ip), vehicle: carboxymethylcellulose (CMC)) is reported as 1 of 6.

With `FC(F)(F)c1ccc2c(c1)N(CCCN1CCN(CCOCCCl)CC1)c1ccccc1S2` the T/C (dose: 12.5 mg/kg/injection, schedule: Q04DX003 (ip), vehicle: saline) was 130 % of control, the T/C (dose: 25.0 mg/kg/injection, schedule: Q04DX003 (ip), vehicle: saline) was 125 and 141 % of control and the T/C (dose: 50.0 mg/kg/injection, schedule: Q04DX003 (ip), vehicle: saline) was 134 and 135 % of control.

With `C[n+]1c(/C=C\C=C\N2CCCCC2)sc2ccccc21` the survivor count (dose: 1.25 mg/kg/injection, schedule: Q01DX009 (ip), vehicle: Klucel (hydroxypropylcellulose) (HPC)) was 0 of 6, the survivor count (dose: 2.5 mg/kg/injection, schedule: Q01DX009 (ip), vehicle: Klucel (hydroxypropylcellulose) (HPC)) was 0 of 6 and the survivor count (dose: 5.0 mg/kg/injection, schedule: Q01DX009 (ip), vehicle: Klucel (hydroxypropylcellulose) (HPC)) was 0 of 6.

For `CCCCNc1ccc(Nc2ccccc2)cc1`, the T/C (dose: 25.0 mg/kg/injection, schedule: Q01DX009 (ip), vehicle: saline + alcohol) was 133 % of control [5 of 6 alive], the survivor count (dose: 50.0 mg/kg/injection, schedule: Q01DX009 (ip), vehicle: saline + alcohol) was 3 of 6 and the survivor count (dose: 100.0 mg/kg/injection, schedule: Q01DX009 (ip), vehicle: saline + alcohol) was 0 of 6.

For `CC/C=N/NC(N)=S`, the survivor count (dose: 25.0 mg/kg/injection, schedule: Q01DX009 (ip), vehicle: saline with Tween-80) was 0 of 6.

With `O=C(O)O.[Ce]` the T/C [2] was 126 % of control.

For `Nc1ncnc2c1nnn2C1OC(CO)C(O)C1O` (stereo not drawn), the survivor count (dose: 118.5 mg/kg/injection, schedule: Q01DX009 (ip), vehicle: Klucel (hydroxypropylcellulose) (HPC)) was 10 of 10.

`NC1CC[N-]CC1.NC1CC[N-]CC1.[Cl][Pt+2]([Cl])([Cl])[Cl]` was tested, and the T/C (dose: 12.5 mg/kg/injection, schedule: Q01DX009 (ip), vehicle: saline) was 127 % of control, the T/C (dose: 25.0 mg/kg/injection, schedule: Q01DX009 (ip), vehicle: saline) was 127 % of control and the T/C (dose: 50.0 mg/kg/injection, schedule: Q01DX009 (ip), vehicle: saline) was 135 % of control. For the same compound, the survivor count (dose: 100.0 mg/kg/injection, schedule: Q01DX009 (ip), vehicle: saline) was 0 of 6.

For `O=C(O)c1ccc(O)c(=O)cc1`, the survivor count (dose: 25.0 mg/kg/injection, schedule: Q01DX001 (ip), vehicle: saline with Tween-80) was 3 of 6 and the survivor count [4] was 1 of 6.

For `CCCCN1CCCC(O)C1` (stereo not drawn), the survivor count (dose: 200.0 mg/kg/injection, schedule: Q01DX009 (ip), vehicle: saline) was 4 of 6.

In the case of `CC(=O)N1C(=O)N(Cl)C(=O)C1(C)c1cccs1` (stereo not drawn), the T/C [1] is reported as 125 % of control, the survivor count (dose: 166.0 mg/kg/injection, schedule: Q01DX009 (ip), vehicle: saline with Tween-80) is reported as 3 of 6 and the survivor count (dose: 400.0 mg/kg/injection, schedule: Q01DX009 (ip), vehicle: saline with Tween-80) is reported as 3 of 6.

For `COC(=O)C1=COC(C)C2CN3CCc4c([nH]c5ccccc45)C3CC12` (stereo not drawn), the survivor count (dose: 80.0 mg/kg/injection, schedule: Q01DX010 (ip), vehicle: saline) was 7 of 7 and the survivor count (dose: 320.0 mg/kg/injection, schedule: Q01DX010 (ip), vehicle: saline) was 6 of 7.

`O=c1c2oc3ccccc3c2cnn1CO` was tested, and the T/C (dose: 50.0 mg/kg/injection, schedule: Q01DX009 (ip), vehicle: saline with Tween-80) was 138 % of control.
